Article PMC6077249, “Insights into Centromere DNA Bending Revealed by the Cryo-EM Structure of the Core Centromere Binding Factor 3 with Ndc10”

Columns and labels:
[1] = tested on: Ctf13 R307A-R308A-R330A + Skp1 + Cep3ΔN K265A-K364A; assay: EMSA; details: DNA 1.6 uM, weaker than Ctf13 triple mutant complex; EMSA: 25 mM HEPES pH 8.0, 200 mM KCl, 2 mM DTT, 10% glycerol, 0.02% NP-40, 10 mM MgCl2, 10 uM ZnCl2; room temperature 45 min; native PAGE at 4 C; recombinant protein; protein details: C-terminal CBP,N-terminal His; label: fluorescent label, singly or doubly labeled
[2] = tested on: Ctf13 R307A-R308A-R330A + Skp1 + Cep3ΔN; assay: EMSA; details: DNA 1.6 uM; EMSA: 25 mM HEPES pH 8.0, 200 mM KCl, 2 mM DTT, 10% glycerol, 0.02% NP-40, 10 mM MgCl2, 10 uM ZnCl2; room temperature 45 min; native PAGE at 4 C; recombinant protein; protein details: C-terminal CBP,N-terminal His; label: fluorescent label, singly or doubly labeled

Sequence: AATATTAGTGTATTTGATTTCCGAAAGTTAAA (double strand) [CDEIII labeled]
- binding result [1]: binds more weakly
- binding result [2]: binds more weakly

Construct, isoform or probe ends are uncertain for at least one entry. Weaker means in comparison with the reference protein, sequence or condition of that experiment.
